PubChem BioAssay AID504467 (National Center for Advancing Translational Sciences (NCATS), 2011)
The whole screen tested about 330,000 compounds, of which about 7,700 (2.3%) were called active. This list was built around the results that the source calls inconclusive (neither active nor inactive); the mix of calls is not that of the screen. Calls come from the whole dose curve; as a rule, active = well fitted inhibition curve with a large enough effect; inconclusive = small, poorly fitted or top-dose-only effect, or effect the other way; inactive = flat fitted curve, though single readings scatter. Potencies beside an inconclusive call are fits to weak or partial responses and may not hold up.

Assay: qHTS screen for small molecules that inhibit ELG1-dependent DNA repair in human embryonic kidney (HEK293T) cells expressing luciferase-tagged ELG1; note: nearly all actives have a fitted effect of over 55% in size
Details: HEK293T ELG1-luciferase reporter, luminescence, 16 h, DNA damage induced by 5-fluorouridine; activity change, negative = inhibition: at 46.1 µM (top of the series)
Outline: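 Luminescence from the luciferase reporter, measured 30 min after ONE-Glo reagent at room temperature, was the read-out. Beforehand, 2,000 cells per well were exposed for 16 hr at 37 °C to 5-fluorouridine together with compound or vehicle.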
% is set by controls: 0 for no effect and ±100 for the full control effect; potency is the fitted concentration of half-maximal effect.

SMILES	Potency	activity change, negative = inhibition
Cc1ccc(C(=O)Oc2ccc(Cl)c3cccnc23)cc1[N+](=O)[O-]	inconclusive: 20 µM [inhibitor, partial curve, poor fit]	–
Cc1nc2ccc(Br)cn2c1C(=O)N/N=C\c1ccccc1Cl	–	inactive: -0.0443%
CCCn1c(=S)[nH]c2cc(C(=O)N3CCCC(C(=O)OCC)C3)ccc2c1=O (stereo not drawn)	–	inactive: -29.1%
COc1ccc(-c2cn3cccnc3n2)cc1NC(=O)C(C)Oc1ccccc1 (stereo not drawn)	inconclusive: 25.9 µM [inhibitor, single point]	–
Cc1ccccc1-c1cccc(CN2CCN(C)C(CCO)C2)c1 (stereo not drawn)	–	inactive: -4.48%
O=C(CN1C(=O)C2C3CC(C(Br)C3Br)C2C1=O)Nc1ccc(C(=O)O)cc1 (stereo not drawn)	–	inactive: -5.2%
CC(C)CC(=O)NC(c1ccccc1)c1c(O)ccc2ccccc12 (stereo not drawn)	inconclusive: 0.461 µM [activator, full curve]	–
COc1cccc2c1OCC([C@@H]1C[C@H]3CN(Cc4cccc(Cl)c4)C(=O)[C@]34CCCN14)=C2	inconclusive: 16.4 µM [inhibitor, partial curve, poor fit]	–
COc1cc(OC)cc(-c2oc(=O)c3cc(OC)c(OC)cc3c2C#CCCO)c1	inconclusive: 2.59 µM [inhibitor, partial curve]	–
Cc1ccc(-n2ncc3c(=O)n(CC(=O)N(C)C)cnc32)cc1C	inconclusive: 0.501 µM [activator, partial curve, poor fit]	–
COc1cccc(/C=N/NC(=O)c2ccc(CN3c4cccc5cccc(c45)S3(=O)=O)cc2)c1	inconclusive: 7.31 µM [inhibitor, partial curve]	–
CCOC(=O)[C@@H]1[C@H]2COc3ccccc3[C@H]2N2C(=O)N(c3ccc(OC)cc3)C(=O)[C@]12C	–	inactive: -4.91%
Cc1cc(C)nc(SCc2nnc(SCC(=O)Nc3ccc(C)c(C)c3)o2)n1	inconclusive: 11.2 µM [activator, partial curve, poor fit]	–
O=C(O)c1cccc(N=NN2CCCCCC2)c1	inconclusive: 0.517 µM [activator, partial curve]	–
CCCSC1=NN2CCCC(=O)N=C2S1	inconclusive: 16.4 µM [activator, partial curve]	–
CCOc1cccc(C(=O)NC(=S)Nc2ccc(N3CCCC3)cc2)c1	–	inactive: -0.307%
CN(c1ccccc1)S(=O)(=O)c1nnc(NC(=O)COc2ccccc2)s1	–	inactive: 8.15%
Cc1ccc(C)c(Cn2c(CO)nc3ccccc32)c1	–	inactive: 0.247%
COc1cccc(C2=CC(=O)C[C@H](c3ccc(Cl)cc3)C2)c1OC	active: 20.6 µM	–
CC(C)CC(=O)NC(=S)Nc1sc2c(c1C(N)=O)CCC2	inconclusive: 7.3 µM [activator, partial curve]	–
O=C(CSc1ccccc1)Nc1nc2ccccc2[nH]1	inconclusive: 8.2 µM [activator, partial curve]	–
COc1ccc(-c2cc(-c3c(O)c(OC)c4occc4c3OC)[nH]n2)cc1	–	inactive: -5.16%
N#CCc1c(C#N)c(N)nc(N2CCN(Cc3ccc4c(c3)OCO4)CC2)c1C#N	active: 18.4 µM	–

SMILES	Potency	activity change, negative = inhibition
Nc1cc(=O)[nH]c(SC/C=C/c2ccccc2)n1	inconclusive: 18.4 µM [activator, single point]	–
COc1cccc2c1Oc1ncccc1N(C(=O)CCC(=O)NCc1ccc(F)cc1)C2	inconclusive: 20.6 µM [activator, partial curve, poor fit]	–
COc1cc(CC(=O)OCC(=O)Nc2sccc2C(N)=O)cc(OC)c1OC	active: 7.3 µM	–
O=C(CSc1nnnn1C1CCCCC1)N1CCCC1	inconclusive: 29.1 µM [activator, partial curve, poor fit]	–
Cn1c(SCC(=O)NCc2ccco2)nc2ccccc2c1=O	–	inactive: -10.2%
COc1ccc(C(=O)N2CCN(c3ccc(F)cc3)CC2)cc1S(=O)(=O)NC1CC1	inconclusive: 12.6 µM [activator, single point]	–
COc1ccc(-c2nnc(SCC(=O)Nc3cc(F)ccc3C)o2)cc1	inconclusive: 20.6 µM [activator, partial curve]	–
Cc1cccc(C(=O)c2c(N)sc3c2CCC(C)C3)c1 (stereo not drawn)	inconclusive: 6.51 µM [activator, partial curve]	–
NC(=O)Cn1cc(/C=N\NS(=O)(=O)c2ccc(F)cc2)c2ccccc21	–	inactive: 9.91%
CC(C)N(C(=O)[C@H]1C[C@H](CC(=O)NCC23CC4CC(CC(C4)C2)C3)C(=O)N2CCc3c([nH]c4ccc(Cl)cc34)[C@]12C)C(C)C	inconclusive: 20.6 µM [inhibitor, partial curve, poor fit]	–
N/C(=N\c1nc2ccccc2o1)NC(=O)c1ccccc1F	inconclusive: 16.4 µM [activator, partial curve]	–
COc1cc(-c2noc(C3CCCN(C(=O)c4c(F)cccc4F)C3)n2)cc(OC)c1OC (stereo not drawn)	inconclusive: 22.4 µM [inhibitor, partial curve, poor fit]	–
CCN(CC)CCN(C(=O)/C=C/c1cccs1)c1nc2ccc(F)cc2s1	–	inactive: 4.72%
Cc1occc1-c1nnc(SCC(=O)N2CCOCC2)n1Cc1ccco1	–	inactive: -2.48%
Cc1ccc(NC(=O)c2nc[nH]c2C(=O)N2CCN(C(=O)OC(C)(C)C)CC2)cc1	inconclusive: 16.4 µM [inhibitor, single point]	–
CCC(C)c1ccc(OCc2ccc(C(=O)O)o2)cc1 (stereo not drawn)	inconclusive: 0.73 µM [activator, partial curve]	–
CC(=O)N1CCC2(CC1)CC(=O)c1cc(OCC(=O)NCc3ccc(C)cc3)ccc1O2	inconclusive: 23.1 µM [inhibitor, single point]	–
COc1ccc(NS(=O)(=O)c2cccc(C(=O)NNC(=O)c3ccc(O)c(Cl)c3)c2)cc1	–	inactive: 2.31%
CCN(CC)c1ncnc2c1ncn2Cc1c(Cl)cccc1Cl	inconclusive: 23.1 µM [inhibitor, single point]	–
O=C(CSc1nnc2ccccn12)N1CCc2ccccc2C1	inconclusive: 20.6 µM [activator, partial curve]	–
CN(C)S(=O)(=O)Oc1cccc(C(=O)Nc2ccccc2Cl)c1	inconclusive: 10.3 µM [activator, partial curve]	–
CC(=O)Nc1ccc(Nc2nc(C)c([N+](=O)[O-])c(Nc3ccc(NC(C)=O)cc3)n2)cc1	inconclusive: 5.8 µM [inhibitor, partial curve, poor fit]	–
CCOc1ccc(-n2c(SCc3ccc(C#N)cc3)nnc2-c2cccnc2)cc1	–	inactive: 3.52%

SMILES	Potency	activity change, negative = inhibition
C=CCn1c(C)cc(C2=NNC(=NCC)SC2)c1C	inconclusive: 7.31 µM [inhibitor, partial curve, poor fit]	–
O=C1N(Cc2cccc(Cl)c2)C[C@@H]2C[C@@H](c3cccn3-c3cccnc3)N3CCC[C@@]123	–	inactive: -9.58%
Cc1ccc2nc(Nc3nc(CSc4nnc(C)s4)cc(=O)[nH]3)nc(C)c2c1	–	inactive: 0.599%
CCOc1ccc(C2=NNC(c3cccnc3)=Nc3ccc(OC)cc32)cc1	–	inactive: -11.3%
CN(C)S(=O)(=O)c1ccc2oc(SCC(=O)c3c(N)n(C4CC4)c(=O)[nH]c3=O)nc2c1	inconclusive: 10 µM [inhibitor, partial curve]	–
CCOc1ccccc1N(CC(=O)N/N=C(\C)c1cccc(Br)c1)S(C)(=O)=O	inconclusive: 29.1 µM [inhibitor, single point]	–
CCCOc1cccc(NC(=O)c2c(-c3ccccc3)noc2C)c1	inconclusive: 20.6 µM [inhibitor, single point]	–
Cc1cccc(C)c1OCc1cc(C(=O)N2CCCCCCC2)no1	inconclusive: 9.2 µM [activator, partial curve]	–
O=[N+]([O-])c1cccc(/C=C/c2ccncc2)c1	inconclusive: 18.3 µM [activator, single point]	–
CCN(CC)S(=O)(=O)c1ccc(NC(=O)c2ccc(N(C)S(C)(=O)=O)cc2)cc1	active: 3.66 µM	–
COc1ccc(CNCc2cc3c(cc2[N+](=O)[O-])OCO3)cc1	inconclusive: 13 µM [activator, partial curve, poor fit]	–
CCOc1ccc(C(=O)CSc2nnc3ccccn23)cc1	inconclusive: 23.1 µM [activator, partial curve]	–
COCCNS(=O)(=O)c1ccc(-c2ccc(S(=O)(=O)NCCOC)cc2)cc1	inconclusive: 7.31 µM [activator, partial curve]	–
CC(C)(C)c1ccc(C(=O)Nc2ccccc2NC(=O)c2ccco2)cc1	inconclusive: 23.1 µM [inhibitor, single point]	–
C=CCOC(=O)C1=C(C)NC(=O)NC1c1cn(-c2ccccc2)nc1-c1cccs1 (stereo not drawn)	inconclusive: 18.4 µM [inhibitor, single point]	–
Cn1c(N)c(C(=O)COC(=O)c2ccc(-c3ccccc3)cc2)c(=O)n(C)c1=O	active: 23.1 µM	–
O=C(NCc1ccc(F)cc1)C(C(=O)NCc1ccc(F)cc1)c1ncc(C(F)(F)F)cc1Cl	inconclusive: 18.3 µM [activator, single point]	–
COc1ccc(/C=N/NC(=O)c2ccccc2F)cc1CN1CCN(c2ccc(F)cc2)CC1	inconclusive: 13 µM [inhibitor, partial curve]	–
O=C(N/N=C/c1cccnc1)c1cccc(NC(=O)c2ccc(Cl)cc2)c1	–	inactive: 16.4%
COc1ccc(/C=C2\N=C(SC)N(c3ccccc3OC)C2=O)cc1	inconclusive: 0.651 µM [activator, single point]	–
CS(=O)(=O)c1ccc2nc(NC(=O)CCN3C(=O)c4ccccc4C3=O)sc2c1	–	inactive: -7.44%
COc1ccc(-n2nc(C(=O)NCC(=O)N3CCN(Cc4ccccc4)CC3)c3ccccc3c2=O)cc1	inconclusive: 18.3 µM [inhibitor, partial curve]	–

Some of these compounds in order of molecular weight, low to high.
SMILES	Potency	activity change, negative = inhibition
Cc1ccc(C)c(Cn2c(CO)nc3ccccc32)c1	–	inactive: 0.247%
Cc1ccccc1-c1cccc(CN2CCN(C)C(CCO)C2)c1 (stereo not drawn)	–	inactive: -4.48%
CCCOc1cccc(NC(=O)c2c(-c3ccccc3)noc2C)c1	inconclusive: 20.6 µM [inhibitor, single point]	–
Cc1ccc(C(=O)Oc2ccc(Cl)c3cccnc23)cc1[N+](=O)[O-]	inconclusive: 20 µM [inhibitor, partial curve, poor fit]	–
CCN(CC)c1ncnc2c1ncn2Cc1c(Cl)cccc1Cl	inconclusive: 23.1 µM [inhibitor, single point]	–
CCOc1cccc(C(=O)NC(=S)Nc2ccc(N3CCCC3)cc2)c1	–	inactive: -0.307%
CCOc1ccc(C2=NNC(c3cccnc3)=Nc3ccc(OC)cc32)cc1	–	inactive: -11.3%
COc1ccc(-c2nnc(SCC(=O)Nc3cc(F)ccc3C)o2)cc1	inconclusive: 20.6 µM [activator, partial curve]	–
O=C(N/N=C/c1cccnc1)c1cccc(NC(=O)c2ccc(Cl)cc2)c1	–	inactive: 16.4%
COc1ccc(-c2cn3cccnc3n2)cc1NC(=O)C(C)Oc1ccccc1 (stereo not drawn)	inconclusive: 25.9 µM [inhibitor, single point]	–
Cc1nc2ccc(Br)cn2c1C(=O)N/N=C\c1ccccc1Cl	–	inactive: -0.0443%
Cn1c(N)c(C(=O)COC(=O)c2ccc(-c3ccccc3)cc2)c(=O)n(C)c1=O	active: 23.1 µM	–
N#CCc1c(C#N)c(N)nc(N2CCN(Cc3ccc4c(c3)OCO4)CC2)c1C#N	active: 18.4 µM	–
CCCn1c(=S)[nH]c2cc(C(=O)N3CCCC(C(=O)OCC)C3)ccc2c1=O (stereo not drawn)	–	inactive: -29.1%
Cc1cc(C)nc(SCc2nnc(SCC(=O)Nc3ccc(C)c(C)c3)o2)n1	inconclusive: 11.2 µM [activator, partial curve, poor fit]	–
COc1cccc2c1Oc1ncccc1N(C(=O)CCC(=O)NCc1ccc(F)cc1)C2	inconclusive: 20.6 µM [activator, partial curve, poor fit]	–
CCOC(=O)[C@@H]1[C@H]2COc3ccccc3[C@H]2N2C(=O)N(c3ccc(OC)cc3)C(=O)[C@]12C	–	inactive: -4.91%
CCOc1ccccc1N(CC(=O)N/N=C(\C)c1cccc(Br)c1)S(C)(=O)=O	inconclusive: 29.1 µM [inhibitor, single point]	–
COc1cccc(/C=N/NC(=O)c2ccc(CN3c4cccc5cccc(c45)S3(=O)=O)cc2)c1	inconclusive: 7.31 µM [inhibitor, partial curve]	–
